Publication PMC7696408
Results are given in words; binding and its absence hold for the method and conditions named. In cells and extracts the contact can be indirect. Some binding calls cover weakened binding; strength is not graded here.

By UniProt entry, the sequences of proteins in these tests, tags left out.
UniProt Q8TBC3: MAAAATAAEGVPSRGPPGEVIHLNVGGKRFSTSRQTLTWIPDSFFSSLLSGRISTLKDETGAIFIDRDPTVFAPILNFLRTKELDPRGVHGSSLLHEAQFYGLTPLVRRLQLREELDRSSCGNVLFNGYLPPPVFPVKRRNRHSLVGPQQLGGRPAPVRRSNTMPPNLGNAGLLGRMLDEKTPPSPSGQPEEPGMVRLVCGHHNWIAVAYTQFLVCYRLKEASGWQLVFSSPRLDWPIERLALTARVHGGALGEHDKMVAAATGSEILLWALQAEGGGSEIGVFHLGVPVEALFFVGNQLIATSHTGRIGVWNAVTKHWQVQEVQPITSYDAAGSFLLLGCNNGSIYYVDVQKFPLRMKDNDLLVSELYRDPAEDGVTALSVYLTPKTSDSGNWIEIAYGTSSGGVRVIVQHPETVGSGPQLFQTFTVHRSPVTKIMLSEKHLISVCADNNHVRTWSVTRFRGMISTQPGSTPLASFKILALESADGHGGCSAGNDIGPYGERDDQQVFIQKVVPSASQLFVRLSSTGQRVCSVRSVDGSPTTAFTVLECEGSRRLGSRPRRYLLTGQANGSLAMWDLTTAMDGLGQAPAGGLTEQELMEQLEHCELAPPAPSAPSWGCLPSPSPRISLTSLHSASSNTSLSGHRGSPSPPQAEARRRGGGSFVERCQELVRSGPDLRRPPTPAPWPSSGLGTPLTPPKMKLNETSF

Target: FlagBirA*-NRAS (human) (UniProt P01111)
Experiment: proximity ligation; Duolink PLA in methanol-fixed FlagBirA*-RAS T-REx 293 cells transfected with 3xHA-tagged candidate, tetracycline-induced; mouse anti-Flag and rabbit anti-HA; dots per cell, 100 cells; radius ~30 nm

- binding: binds
Substance: HA-SHKBP1 (from UniProt Q8TBC3 1-707)
